These are yes or no findings as the source states them, for the method shown. Binding seen in cells or lysates may run through a third protein. Some results given as binding are weak or reduced against the parent protein; the word gives no strength. For some of these results: Where a sequence is shown, tags or fusion partners need not be part of it. Values belong to the molecule of their own block, whether it stands above or below them.
Legend:
[1] = target: myosin heavy chain (Zip), endogenous, detected with anti-Zip antibody (Drosophila (endogenous in spermatocytes)) (UniProt Q99323); assay: proximity ligation; in situ PLA (Duolink kit) on fixed Drosophila primary spermatocytes, late anaphase to telophase I; one partner detected by its own antibody, the GFP-tagged partner by anti-GFP; signal means within 40 nm
[2] = target: T1, anillin (endogenous, detected with anti-anillin antibody) (Drosophila (endogenous in spermatocytes)) (UniProt Q9V4P1); assay: as above
T1 sequence: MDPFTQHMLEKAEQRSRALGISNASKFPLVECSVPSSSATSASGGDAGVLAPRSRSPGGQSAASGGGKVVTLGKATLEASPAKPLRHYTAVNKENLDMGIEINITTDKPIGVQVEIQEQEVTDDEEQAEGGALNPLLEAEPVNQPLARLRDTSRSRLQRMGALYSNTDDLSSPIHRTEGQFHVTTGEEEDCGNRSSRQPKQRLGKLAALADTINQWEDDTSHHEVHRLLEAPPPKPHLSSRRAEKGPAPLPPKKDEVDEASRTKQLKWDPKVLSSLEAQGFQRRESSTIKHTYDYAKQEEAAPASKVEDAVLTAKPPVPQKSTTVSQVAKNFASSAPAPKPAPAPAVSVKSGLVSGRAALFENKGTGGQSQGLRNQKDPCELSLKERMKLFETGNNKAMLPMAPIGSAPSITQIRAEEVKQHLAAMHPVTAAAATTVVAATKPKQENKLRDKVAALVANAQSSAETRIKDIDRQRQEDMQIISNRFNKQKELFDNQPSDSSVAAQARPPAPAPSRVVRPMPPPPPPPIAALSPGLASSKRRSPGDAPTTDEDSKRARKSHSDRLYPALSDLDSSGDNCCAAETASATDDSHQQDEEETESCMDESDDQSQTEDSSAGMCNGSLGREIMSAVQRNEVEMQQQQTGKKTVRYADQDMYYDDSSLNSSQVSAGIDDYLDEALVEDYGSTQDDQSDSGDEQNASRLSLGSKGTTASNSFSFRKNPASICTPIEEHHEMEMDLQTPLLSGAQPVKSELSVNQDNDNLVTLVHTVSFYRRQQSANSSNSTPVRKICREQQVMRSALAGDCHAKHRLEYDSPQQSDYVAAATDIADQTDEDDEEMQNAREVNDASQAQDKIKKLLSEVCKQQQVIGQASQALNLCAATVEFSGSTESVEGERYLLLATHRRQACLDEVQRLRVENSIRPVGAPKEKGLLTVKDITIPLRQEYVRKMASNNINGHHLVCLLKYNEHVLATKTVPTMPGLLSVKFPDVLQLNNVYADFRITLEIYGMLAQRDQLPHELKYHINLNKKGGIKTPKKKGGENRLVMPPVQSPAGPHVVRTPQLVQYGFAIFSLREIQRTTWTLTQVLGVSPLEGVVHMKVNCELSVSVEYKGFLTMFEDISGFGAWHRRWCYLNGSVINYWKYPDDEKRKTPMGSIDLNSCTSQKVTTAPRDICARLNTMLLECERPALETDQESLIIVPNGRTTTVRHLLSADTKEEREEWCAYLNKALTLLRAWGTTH

Protein sequences, listed by entry. Tags and fused reporters are not part of them. Lines headed by an entry give the natural chain unless they say otherwise; changes in a name come on top. Chains listed by the source or under a name are the forms on record and can include a tag or linker.
myosin heavy chain (Zip), endogenous, detected with anti-Zip antibody (Drosophila (endogenous in spermatocytes)) (Q99323, form named): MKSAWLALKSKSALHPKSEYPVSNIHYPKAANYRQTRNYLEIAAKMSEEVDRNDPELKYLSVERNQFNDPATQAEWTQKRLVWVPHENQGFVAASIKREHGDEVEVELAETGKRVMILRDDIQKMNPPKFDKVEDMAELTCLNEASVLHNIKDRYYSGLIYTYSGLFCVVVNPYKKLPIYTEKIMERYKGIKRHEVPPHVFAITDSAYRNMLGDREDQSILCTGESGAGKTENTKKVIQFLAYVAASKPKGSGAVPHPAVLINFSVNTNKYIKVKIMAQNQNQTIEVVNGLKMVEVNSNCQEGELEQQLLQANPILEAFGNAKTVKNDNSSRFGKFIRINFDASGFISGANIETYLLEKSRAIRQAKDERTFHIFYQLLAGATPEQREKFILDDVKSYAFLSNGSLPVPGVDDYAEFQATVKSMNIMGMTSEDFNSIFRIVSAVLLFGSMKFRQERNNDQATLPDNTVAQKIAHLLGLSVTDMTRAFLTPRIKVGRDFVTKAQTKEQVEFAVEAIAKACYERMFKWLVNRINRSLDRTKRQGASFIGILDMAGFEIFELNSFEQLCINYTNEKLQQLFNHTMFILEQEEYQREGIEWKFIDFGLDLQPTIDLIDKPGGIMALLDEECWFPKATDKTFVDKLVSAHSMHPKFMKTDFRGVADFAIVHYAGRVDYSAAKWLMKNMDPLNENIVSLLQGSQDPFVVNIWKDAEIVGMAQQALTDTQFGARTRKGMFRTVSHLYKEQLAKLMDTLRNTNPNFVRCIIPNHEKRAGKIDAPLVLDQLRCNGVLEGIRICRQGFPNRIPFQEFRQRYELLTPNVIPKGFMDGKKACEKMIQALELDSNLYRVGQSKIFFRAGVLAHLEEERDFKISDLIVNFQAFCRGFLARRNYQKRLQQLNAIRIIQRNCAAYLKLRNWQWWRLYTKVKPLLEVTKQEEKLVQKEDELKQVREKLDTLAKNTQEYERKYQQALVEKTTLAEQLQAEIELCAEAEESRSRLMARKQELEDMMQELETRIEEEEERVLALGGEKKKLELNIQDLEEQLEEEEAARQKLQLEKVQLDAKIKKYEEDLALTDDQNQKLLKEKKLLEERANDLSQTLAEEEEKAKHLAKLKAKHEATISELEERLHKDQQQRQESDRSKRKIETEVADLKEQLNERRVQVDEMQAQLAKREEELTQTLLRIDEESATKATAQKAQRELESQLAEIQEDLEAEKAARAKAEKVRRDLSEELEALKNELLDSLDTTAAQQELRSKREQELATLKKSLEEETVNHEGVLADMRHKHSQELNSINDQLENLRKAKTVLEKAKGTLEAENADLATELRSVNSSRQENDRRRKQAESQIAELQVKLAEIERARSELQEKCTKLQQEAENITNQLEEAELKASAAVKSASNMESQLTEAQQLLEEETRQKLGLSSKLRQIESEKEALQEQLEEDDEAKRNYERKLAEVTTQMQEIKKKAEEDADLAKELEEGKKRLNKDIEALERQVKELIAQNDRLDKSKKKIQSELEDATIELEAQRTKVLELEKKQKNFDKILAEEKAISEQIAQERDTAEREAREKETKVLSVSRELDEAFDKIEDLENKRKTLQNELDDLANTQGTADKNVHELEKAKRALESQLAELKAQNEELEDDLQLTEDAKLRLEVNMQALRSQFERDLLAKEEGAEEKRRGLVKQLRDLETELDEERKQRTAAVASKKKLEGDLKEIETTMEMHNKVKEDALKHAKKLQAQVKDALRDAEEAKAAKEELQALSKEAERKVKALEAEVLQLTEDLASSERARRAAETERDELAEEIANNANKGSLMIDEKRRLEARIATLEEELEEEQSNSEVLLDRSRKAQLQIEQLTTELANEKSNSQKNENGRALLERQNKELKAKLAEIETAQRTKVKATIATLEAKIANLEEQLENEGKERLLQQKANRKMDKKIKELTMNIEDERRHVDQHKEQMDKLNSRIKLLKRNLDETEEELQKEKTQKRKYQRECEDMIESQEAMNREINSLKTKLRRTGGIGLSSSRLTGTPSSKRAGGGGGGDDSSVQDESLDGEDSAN
UniProt P08985: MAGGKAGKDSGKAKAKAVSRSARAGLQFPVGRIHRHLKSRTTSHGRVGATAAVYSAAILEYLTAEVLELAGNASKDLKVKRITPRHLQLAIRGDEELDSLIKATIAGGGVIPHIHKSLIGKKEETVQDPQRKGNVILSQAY

[3] = target: myosin heavy chain (Zip), endogenous, detected with anti-Zip antibody (Drosophila (endogenous in spermatocytes)) (UniProt Q99323); assay: proximity ligation; in situ PLA, signals in ring canals of fixed spermatocytes; data not shown
[4] = target: T2, GFP-Sqh/myosin light-chain (MLC) (Drosophila) (UniProt P40423); assay: proximity ligation; in situ PLA (Duolink kit) on fixed Drosophila primary spermatocytes, late anaphase to telophase I; one partner detected by its own antibody, the GFP-tagged partner by anti-GFP; signal means within 40 nm
T2 sequence: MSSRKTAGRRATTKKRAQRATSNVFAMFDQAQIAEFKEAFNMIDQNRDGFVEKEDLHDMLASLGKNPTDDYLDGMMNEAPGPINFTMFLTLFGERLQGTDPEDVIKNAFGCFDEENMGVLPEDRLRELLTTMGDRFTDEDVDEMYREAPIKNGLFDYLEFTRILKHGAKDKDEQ

binding [1]: no binding
Molecule: GFP-Histone 2Av (from UniProt P08985 1-141)

binding [2]: no binding | binding [3]: binds
B1: GFP-Orbit (protein, UniProt Q9NBD7 1-1491)
chain: MAYRKPSDLDGFIQQMPKADMRVKVQLAEDLVTFLSDDTNSIVCTDMGFLIDGLMPWLTGSHFKIAQKSLEAFSELIKRLGSDFNAYTATVLPHVIDRLGDSRDTVREKAQLLLRDLMEHRVLPPQALIDKLATSCFKHKNAKVREEFLQTIVNALHEYGTQQLSVRVYIPPVCALLGDPTVNVREAAIQTLVEIYKHVGDRLRPDLRRMDDVPASKLAMLEQKFDQVKQEGLLLPSALKNTNGNGVGLDEADNIGLRERPTRMIKRPLHSAVSSSLRPKPNVNDVTGDAGAVTMESFESSFEVVPQLNIFHAKDMDDIYKQVLVIISDKNADWEKRVDALKKIRALLILSYHTQPQFVAVQLKELSLSFVDILKEELRSQVIREACITIAYMSKTLRNKLDAFCWSILEHLINLIQNSAKVIASASTIALKYIIKYTHAPKLLKIYTDTLNQSKSKDIRSTLCELMVLLFEEWQTKALERNATVLRDTLKKSIGDADCDARRHSRYAYWAFRRHFPELADQIYGTLDIAAQRALEREREGGGGGGTGTGTGTAPETRRTVSRIGRTPGTLQKPTPSMRSISAVDTAAAQRAKVRAQYTLYSRQRKPLGPNNSNQASMTGAAASGSLPRPRLNSNSGGTPATTPGSVTPRPRGRAGVSQSQPGSRSTSPSTKLRDQYGGIGNYYRGATGAIPKKASGIPRSTASSRETSPTRSGGGLMKRSMYSTGAGSRRTPERNNPVRPSAAARLLAQSREAEHTLGVGDDGQPDYVSGDYMRSGGMRMGRKLMGRDESDDIDSEASSVCSERSFDSSYTRGNKSNYSLSGSHTRLDWSTQRAPFDDIETIIQFCASTHWSERKDGLISLTQYLADGKELTQQQLKCVLDMFRKMFMDTHTKVYSLFLDTVTELILVHANELHEWLFILLTRLFNKLGTDLLNSMHSKIWKTLQVVHEYFPTQLQLKELFRIISDSTQTPTTKTRIAILRFLTDLANTYCKSSDFPSDQSQACERTVLKLAQLAADQKSMELRSQARSCLVALYNLNTPQMTLLLADLPKVYQDSARSCIHSHMRRQSQSCNSGANSPSSSPLSSSSPKPLQSPSVGPFASLQSHHHQLSISSTSPRSRQSSVEQELLFSSELDIQHNIQKTSEEIRHCFGGQYQTALAPNGFNGHLQYHDQGQQDSCASLSSNSKTQSSANTTQSNTPESATMRLDNLERERTTQNAKSPTDDAKVITVSINMAENGELILASNLMESEVVRVALTLTKDQPVELLQTSLTNLGICIKGGNCELPNKHFRSIMRMLLNILEAEHTDVVIAGLHVLSKIMRSNKMRHNWMHFLELILLKIIQCYQHSKEALRDIDSMIPRIAPSLPLDLSINIVNPVIATGEFPTNLCAIKILLEVTEHHGSEITDAHLDIVFPNLARSADDTQSMVRKAAVFCIVKLYFVLGEEKVKPKLSVLNPSKVRLLNVYIEKQRNCISGGGSSTKNSSAASSS

binding [4]: binds
B2: Orbit, Drosophila ortholog of the MT plus-end tracking protein CLASP (endogenous, detected with anti-Orbit antibody) (protein, UniProt Q9NBD7 1-1491)
chain: B1 chain
